Results are given in words; binding and its absence hold for the method and conditions named. A result given as binding can be weak or reduced; the word gives no strength. Where a sequence is shown, tags or fusion partners need not be part of it.
Assays:
[1] = target: AG-C (C-terminus of AG) (Arabidopsis); assay: two-hybrid; bait in pDEST32 (DBD), prey in pDEST22 (AD), S. cerevisiae AH109; growth on SD-Leu-Trp-His with 2.5 mM 3-amino-1,2,4-triazole, 10-, 100- and 1,000-fold dilutions
[2] = target: SEP3-C (C-terminus of SEP3) (Arabidopsis); assay: as above

Binder | binding [1] | binding [2]
TCP4 (yeast two-hybrid prey, activation domain fusion) (protein, UniProt Q8LPR5 1-420) MSDDQFHHPPPPSSMRHRSTSDAADGGCGEIVEVQGGHIVRSTGRKDRHSKVCTAKGPRDRRVRLSAHTAIQFYDVQDRLGFDRPSKAVDWLIKKAKTSIDELAELPPWNPADAIRLAAANAKPRRTTAKTQISPSPPPPQQQQQQQQLQFGVGFNGGGAEHPSNNESSFLPPSMDSDSIADTIKSFFPVIGSSTEAPSNHNLMHNYHHQHPPDLLSRTNSQNQDLRLSLQSFPDGPPSLLHHQHHHHTSASASEPTLFYGQSNPLGFDTSSWEQQSSEFGRIQRLVAWNSGGGGGATDTGNGGGFLFAPPTPSTTSFQPVLGQSQQLYSQRGPLQSSYSPMIRAWFDPHHHHQSISTDDLNHHHHLPPPVHQSAIPGIGFASGEFSSGFRIPARFQGQEEEQHDGLTHKPSSASSISRH | binds | binds
TCP18 (yeast two-hybrid prey, activation domain fusion) (protein, UniProt A1YKT1 1-433) MNNNIFSTTTTINDDYMLFPYNDHYSSQPLLPFSPSSSINDILIHSTSNTSNNHLDHHHQFQQPSPFSHFEFAPDCALLTSFHPENNGHDDNQTIPNDNHHPSLHFPLNNTIVEQPTEPSETINLIEDSQRISTSQDPKMKKAKKPSRTDRHSKIKTAKGTRDRRMRLSLDVAKELFGLQDMLGFDKASKTVEWLLTQAKPEIIKIATTLSHHGCFSSGDESHIRPVLGSMDTSSDLCELASMWTVDDRGSNTNTTETRGNKVDGRSMRGKRKRPEPRTPILKKLSKEERAKARERAKGRTMEKMMMKMKGRSQLVKVVEEDAHDHGEIIKNNNRSQVNRSSFEMTHCEDKIEELCKNDRFAVCNEFIMNKKDHISNESYDLVNYKPNSSFPVINHHRSQGAANSIEQHQFTDLHYSFGAKPRDLMHNYQNMY | binds | binds

— publication PMC10499876, “Arabidopsis TCP4 transcription factor inhibits high temperature-induced homeotic conversion of ovules”
